# The supplement of paper PMC10849652
# Chains of the proteins cited; added tags and fusions are not shown. Lines headed by an entry give the natural chain unless they say otherwise; changes in a name come on top.
# UniProt Q9Y5S1: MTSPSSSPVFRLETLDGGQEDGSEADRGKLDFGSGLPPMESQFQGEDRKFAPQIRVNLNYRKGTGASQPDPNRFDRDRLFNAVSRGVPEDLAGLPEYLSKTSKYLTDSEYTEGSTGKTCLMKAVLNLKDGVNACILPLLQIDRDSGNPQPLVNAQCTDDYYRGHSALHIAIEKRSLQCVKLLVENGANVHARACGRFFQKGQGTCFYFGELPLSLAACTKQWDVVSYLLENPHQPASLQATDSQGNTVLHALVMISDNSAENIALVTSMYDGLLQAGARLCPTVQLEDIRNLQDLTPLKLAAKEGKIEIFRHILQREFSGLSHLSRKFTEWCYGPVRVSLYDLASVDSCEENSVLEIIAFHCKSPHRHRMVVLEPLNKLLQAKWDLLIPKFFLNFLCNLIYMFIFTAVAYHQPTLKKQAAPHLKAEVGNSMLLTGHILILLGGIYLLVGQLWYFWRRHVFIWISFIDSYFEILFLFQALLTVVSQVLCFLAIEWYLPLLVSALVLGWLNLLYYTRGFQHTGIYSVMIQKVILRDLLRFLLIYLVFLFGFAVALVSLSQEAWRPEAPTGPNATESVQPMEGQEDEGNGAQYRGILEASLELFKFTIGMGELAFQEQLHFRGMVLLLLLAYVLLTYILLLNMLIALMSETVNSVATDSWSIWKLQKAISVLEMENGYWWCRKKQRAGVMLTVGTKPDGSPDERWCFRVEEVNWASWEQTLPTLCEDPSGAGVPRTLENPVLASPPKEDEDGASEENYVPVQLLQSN
# UniProt O14545: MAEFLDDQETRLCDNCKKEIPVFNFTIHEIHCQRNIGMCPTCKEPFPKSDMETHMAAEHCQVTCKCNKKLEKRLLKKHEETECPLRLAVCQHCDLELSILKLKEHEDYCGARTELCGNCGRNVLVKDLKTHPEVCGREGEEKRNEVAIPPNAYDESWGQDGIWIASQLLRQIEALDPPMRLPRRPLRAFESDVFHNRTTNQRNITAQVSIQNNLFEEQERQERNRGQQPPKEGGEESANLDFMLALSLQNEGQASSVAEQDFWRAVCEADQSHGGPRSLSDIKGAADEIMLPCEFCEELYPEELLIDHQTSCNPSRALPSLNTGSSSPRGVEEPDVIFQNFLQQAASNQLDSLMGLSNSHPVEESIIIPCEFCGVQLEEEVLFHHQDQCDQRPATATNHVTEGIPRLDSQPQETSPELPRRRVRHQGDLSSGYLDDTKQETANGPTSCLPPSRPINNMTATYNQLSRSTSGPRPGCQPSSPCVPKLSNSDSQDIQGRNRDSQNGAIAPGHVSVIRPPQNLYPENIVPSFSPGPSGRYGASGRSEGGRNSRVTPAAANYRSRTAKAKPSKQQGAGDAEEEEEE
# UniProt Q9BRZ2: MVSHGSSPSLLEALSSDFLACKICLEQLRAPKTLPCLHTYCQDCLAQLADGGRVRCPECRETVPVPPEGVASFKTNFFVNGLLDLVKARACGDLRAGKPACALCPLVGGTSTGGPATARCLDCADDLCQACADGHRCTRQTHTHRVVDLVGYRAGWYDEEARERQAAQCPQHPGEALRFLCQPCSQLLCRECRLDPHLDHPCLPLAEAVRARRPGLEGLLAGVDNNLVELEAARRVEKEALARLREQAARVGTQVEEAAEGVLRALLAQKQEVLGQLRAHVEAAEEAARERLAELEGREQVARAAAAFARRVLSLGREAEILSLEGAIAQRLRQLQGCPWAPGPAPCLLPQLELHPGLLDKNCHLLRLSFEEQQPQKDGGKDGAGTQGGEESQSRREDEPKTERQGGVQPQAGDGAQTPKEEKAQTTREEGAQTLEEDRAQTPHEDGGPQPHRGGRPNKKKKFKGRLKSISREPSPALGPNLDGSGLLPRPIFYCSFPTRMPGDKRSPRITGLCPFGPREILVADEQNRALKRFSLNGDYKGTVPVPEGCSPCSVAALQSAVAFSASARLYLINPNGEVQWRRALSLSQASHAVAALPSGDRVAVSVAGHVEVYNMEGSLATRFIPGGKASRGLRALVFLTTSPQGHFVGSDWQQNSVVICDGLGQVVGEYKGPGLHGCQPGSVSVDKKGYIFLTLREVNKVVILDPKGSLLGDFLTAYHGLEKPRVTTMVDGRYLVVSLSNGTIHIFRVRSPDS
# UniProt Q15035: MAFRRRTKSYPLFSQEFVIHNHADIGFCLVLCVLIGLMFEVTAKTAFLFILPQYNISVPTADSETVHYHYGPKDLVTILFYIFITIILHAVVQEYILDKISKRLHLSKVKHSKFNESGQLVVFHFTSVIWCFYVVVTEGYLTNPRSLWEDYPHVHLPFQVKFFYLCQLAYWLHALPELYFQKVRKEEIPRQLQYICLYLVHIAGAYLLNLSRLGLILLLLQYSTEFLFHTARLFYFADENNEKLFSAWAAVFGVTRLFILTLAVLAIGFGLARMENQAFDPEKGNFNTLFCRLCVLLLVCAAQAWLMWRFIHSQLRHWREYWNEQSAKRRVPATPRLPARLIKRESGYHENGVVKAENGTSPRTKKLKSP
# UniProt Q14134: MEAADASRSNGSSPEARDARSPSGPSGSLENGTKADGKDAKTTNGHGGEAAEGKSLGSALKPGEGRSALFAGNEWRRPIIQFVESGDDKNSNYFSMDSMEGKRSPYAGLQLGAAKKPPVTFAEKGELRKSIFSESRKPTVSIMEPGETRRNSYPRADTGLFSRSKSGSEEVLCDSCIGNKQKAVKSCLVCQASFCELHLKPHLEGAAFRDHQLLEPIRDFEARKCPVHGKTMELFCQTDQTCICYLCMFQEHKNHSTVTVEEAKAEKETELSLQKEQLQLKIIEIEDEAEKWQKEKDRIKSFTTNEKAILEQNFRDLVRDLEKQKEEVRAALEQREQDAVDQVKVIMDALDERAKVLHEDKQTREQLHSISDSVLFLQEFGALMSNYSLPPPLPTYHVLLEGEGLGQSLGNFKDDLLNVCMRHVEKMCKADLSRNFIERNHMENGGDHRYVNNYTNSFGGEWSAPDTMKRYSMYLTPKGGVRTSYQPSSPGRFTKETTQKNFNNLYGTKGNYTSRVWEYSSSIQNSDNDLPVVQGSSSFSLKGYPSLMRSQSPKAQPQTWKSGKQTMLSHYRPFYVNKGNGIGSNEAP
# UniProt Q9BQ61: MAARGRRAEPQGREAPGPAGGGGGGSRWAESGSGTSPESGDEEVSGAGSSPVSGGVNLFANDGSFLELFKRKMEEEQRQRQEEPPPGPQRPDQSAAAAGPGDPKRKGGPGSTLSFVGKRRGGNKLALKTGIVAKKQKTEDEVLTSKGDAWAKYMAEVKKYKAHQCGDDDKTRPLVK
# UniProt Q5JTV8: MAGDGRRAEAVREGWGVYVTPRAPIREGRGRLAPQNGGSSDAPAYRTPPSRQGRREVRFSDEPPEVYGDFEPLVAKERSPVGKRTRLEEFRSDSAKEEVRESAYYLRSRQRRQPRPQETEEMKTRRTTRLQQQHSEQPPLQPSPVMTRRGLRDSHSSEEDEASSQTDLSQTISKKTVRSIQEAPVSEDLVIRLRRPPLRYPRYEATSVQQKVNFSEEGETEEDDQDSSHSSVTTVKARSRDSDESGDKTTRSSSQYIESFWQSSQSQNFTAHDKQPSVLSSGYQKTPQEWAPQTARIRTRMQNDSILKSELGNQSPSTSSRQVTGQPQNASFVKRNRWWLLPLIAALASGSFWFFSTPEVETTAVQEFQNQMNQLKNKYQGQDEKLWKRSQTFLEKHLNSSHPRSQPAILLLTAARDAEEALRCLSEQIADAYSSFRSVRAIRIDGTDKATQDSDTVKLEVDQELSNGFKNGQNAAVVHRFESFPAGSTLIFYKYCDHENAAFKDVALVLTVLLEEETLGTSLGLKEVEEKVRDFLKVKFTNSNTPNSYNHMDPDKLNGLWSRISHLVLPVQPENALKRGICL
# UniProt Q53FA7: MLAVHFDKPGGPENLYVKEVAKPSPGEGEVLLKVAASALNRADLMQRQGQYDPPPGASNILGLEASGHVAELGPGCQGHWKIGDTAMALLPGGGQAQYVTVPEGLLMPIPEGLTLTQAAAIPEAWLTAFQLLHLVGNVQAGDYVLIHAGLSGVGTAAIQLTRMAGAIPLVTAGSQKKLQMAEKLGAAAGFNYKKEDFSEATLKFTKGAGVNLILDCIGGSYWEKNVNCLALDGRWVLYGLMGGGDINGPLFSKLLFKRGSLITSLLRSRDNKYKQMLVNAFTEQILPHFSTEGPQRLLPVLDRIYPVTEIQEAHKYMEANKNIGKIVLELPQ
# UniProt Q9Y5R8, whole entry, looked up: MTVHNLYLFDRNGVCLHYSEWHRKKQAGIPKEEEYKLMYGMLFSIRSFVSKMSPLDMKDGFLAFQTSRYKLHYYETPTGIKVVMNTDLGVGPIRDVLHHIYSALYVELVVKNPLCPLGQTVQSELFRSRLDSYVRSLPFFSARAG
# UniProt Q14669: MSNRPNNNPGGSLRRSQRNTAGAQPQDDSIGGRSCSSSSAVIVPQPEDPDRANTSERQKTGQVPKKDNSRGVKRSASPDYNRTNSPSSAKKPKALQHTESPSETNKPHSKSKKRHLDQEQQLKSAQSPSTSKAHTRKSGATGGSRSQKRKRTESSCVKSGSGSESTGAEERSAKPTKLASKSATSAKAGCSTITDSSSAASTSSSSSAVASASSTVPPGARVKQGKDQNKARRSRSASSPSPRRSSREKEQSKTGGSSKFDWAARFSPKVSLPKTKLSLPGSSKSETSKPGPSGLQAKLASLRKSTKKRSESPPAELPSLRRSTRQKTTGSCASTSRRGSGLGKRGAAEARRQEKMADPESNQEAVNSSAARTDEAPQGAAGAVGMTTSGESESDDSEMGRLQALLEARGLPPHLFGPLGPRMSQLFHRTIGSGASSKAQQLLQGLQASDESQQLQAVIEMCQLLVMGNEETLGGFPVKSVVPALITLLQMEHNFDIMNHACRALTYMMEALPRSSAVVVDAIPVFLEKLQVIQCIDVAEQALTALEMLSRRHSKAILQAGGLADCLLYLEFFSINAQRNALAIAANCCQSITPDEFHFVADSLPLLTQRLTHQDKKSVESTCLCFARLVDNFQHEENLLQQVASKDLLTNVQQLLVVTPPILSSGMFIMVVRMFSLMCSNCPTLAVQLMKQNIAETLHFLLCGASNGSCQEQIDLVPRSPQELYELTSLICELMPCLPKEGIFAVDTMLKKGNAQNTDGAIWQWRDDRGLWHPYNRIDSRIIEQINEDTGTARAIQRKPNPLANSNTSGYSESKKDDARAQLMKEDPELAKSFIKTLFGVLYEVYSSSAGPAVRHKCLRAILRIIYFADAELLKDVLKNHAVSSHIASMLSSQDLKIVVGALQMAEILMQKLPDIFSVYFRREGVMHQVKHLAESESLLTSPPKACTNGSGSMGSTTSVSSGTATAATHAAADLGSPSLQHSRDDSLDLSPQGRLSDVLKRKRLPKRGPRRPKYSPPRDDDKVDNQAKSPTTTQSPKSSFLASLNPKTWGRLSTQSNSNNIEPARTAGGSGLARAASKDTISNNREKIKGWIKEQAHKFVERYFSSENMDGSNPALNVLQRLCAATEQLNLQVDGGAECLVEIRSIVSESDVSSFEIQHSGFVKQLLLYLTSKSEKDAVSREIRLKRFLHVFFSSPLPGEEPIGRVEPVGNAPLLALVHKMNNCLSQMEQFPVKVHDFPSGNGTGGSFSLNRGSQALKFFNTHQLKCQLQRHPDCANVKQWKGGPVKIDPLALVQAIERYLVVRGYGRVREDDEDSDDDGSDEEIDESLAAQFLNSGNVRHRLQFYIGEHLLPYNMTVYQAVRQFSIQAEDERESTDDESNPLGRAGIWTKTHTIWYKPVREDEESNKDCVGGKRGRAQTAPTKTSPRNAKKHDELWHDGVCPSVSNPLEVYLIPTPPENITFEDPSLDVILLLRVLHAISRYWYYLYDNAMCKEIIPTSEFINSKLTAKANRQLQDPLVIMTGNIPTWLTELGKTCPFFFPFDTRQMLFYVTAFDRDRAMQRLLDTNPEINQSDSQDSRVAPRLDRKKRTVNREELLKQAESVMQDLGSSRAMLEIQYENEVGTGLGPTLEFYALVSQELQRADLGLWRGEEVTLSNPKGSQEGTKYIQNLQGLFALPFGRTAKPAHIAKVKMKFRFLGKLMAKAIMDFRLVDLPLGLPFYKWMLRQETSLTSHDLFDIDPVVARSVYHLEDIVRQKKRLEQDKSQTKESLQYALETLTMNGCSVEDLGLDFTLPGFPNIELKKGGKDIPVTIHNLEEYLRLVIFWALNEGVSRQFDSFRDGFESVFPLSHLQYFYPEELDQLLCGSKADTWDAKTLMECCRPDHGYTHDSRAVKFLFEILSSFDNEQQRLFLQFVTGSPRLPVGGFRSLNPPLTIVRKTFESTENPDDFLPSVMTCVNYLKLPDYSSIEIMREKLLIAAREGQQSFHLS
# UniProt P62995: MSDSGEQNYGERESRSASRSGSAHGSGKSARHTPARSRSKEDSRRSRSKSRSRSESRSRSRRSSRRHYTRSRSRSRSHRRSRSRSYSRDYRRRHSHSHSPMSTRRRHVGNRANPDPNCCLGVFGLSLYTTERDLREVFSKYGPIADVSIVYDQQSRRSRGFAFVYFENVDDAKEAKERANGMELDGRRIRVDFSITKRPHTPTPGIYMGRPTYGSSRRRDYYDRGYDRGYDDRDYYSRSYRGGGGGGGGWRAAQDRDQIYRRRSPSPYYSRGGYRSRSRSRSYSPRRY
# This is one part of the list.
# Compound: c1cn2cc(-c3ccc4cn[nH]c4c3)nc(Nc3ccc(N4CCOCC4)cc3)c2n1 [entospletinib]
# Experiment: log2 fold change, soluble protein after heating vs DMSO (PISA); higher = thermal stabilisation; K562 cells, 10 uM, 30 min; active = over 0.2 and 3.5 SD of the protein, either way, in both replicates (recomputed)
# Procedure, shortened: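 For each measurement, 10 μM compound was applied for 30 min to K562 cells at 2×10^6 cells/mL. Aliquots were heated for 3 min across 48°C-58°C, pooled, and extracted in PBS with 0.5% NP-40 at 4°C; the supernatant after 21,000xg for 90 min was soluble protein. This was quantified by TMTpro 16plex LC-MS/MS with channel sums equalised, and thermal stability was reported relative to control samples from duplicates, on a log2 fold-change scale.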
row,Target,log2 fold change
1,TRPV2 (UniProt Q9Y5S1),inactive: -0.01
2,TPP2 (UniProt Q5VZU9),inactive: 0.023
3,TPM3 isoform 2 (UniProt P06753),inactive: 0.033
4,TPM1 (UniProt H7BYY1),inactive: 0.02
5,TRAFD1 (UniProt O14545),inactive: -0.024
6,TRIM24 (UniProt O15164),inactive: 0.097
7,TPRKB (UniProt Q9Y3C4),inactive: -0.016
8,TRIM56 (UniProt Q9BRZ2),inactive: 0.038
9,TNKS1BP1 (UniProt Q9C0C2),inactive: 0.016
10,TRAM2 (UniProt Q15035),inactive: -0.037
11,TRMT1L (UniProt Q7Z2T5),inactive: 0.098
12,TRIP13 (UniProt Q15645),inactive: -0.054
13,TRRAP (UniProt Q9Y4A5),inactive: -0.012
14,TRAPPC5 (UniProt Q8IUR0),inactive: -0.037
15,TRMT13 (UniProt Q9NUP7),inactive: -0.009
16,TRIM65 (UniProt Q6PJ69),inactive: -0.141

row,Target,log2 fold change
1,TRIM29 (UniProt Q14134),inactive: 0.07
2,TRIR (UniProt Q9BQ61),inactive: 0.049
3,TSEN15 (UniProt Q8WW01),inactive: -0.04
4,TPM4 isoform 2 (UniProt P67936),inactive: 0.047
5,TOR1AIP1 (UniProt Q5JTV8),inactive: 0.053
6,TOX4 (UniProt O94842),inactive: 0.06
7,TRPM7 (UniProt Q96QT4),inactive: 0.07
8,TPRG1L (UniProt Q5T0D9),inactive: 0.031
9,TP53I3 (UniProt Q53FA7),inactive: -0.069
10,TRAPPC1 (UniProt Q9Y5R8),inactive: -0.034
11,TOMM40L (UniProt Q969M1),inactive: -0.087
12,TPMT (UniProt P51580),inactive: -0.035
13,TRAPPC9 isoform 2 (UniProt Q96Q05),inactive: -0.062
14,TOR1A (UniProt O14656),inactive: 0.002
15,TRIP12 isoform 3 (UniProt Q14669),inactive: -0.059
16,TRA2B (UniProt P62995),inactive: 0.171

# A portion from further up:
row,Target,log2 fold change
5,TRAFD1 (UniProt O14545),inactive: -0.024
6,TRIM24 (UniProt O15164),inactive: 0.097
